Here are results for five targets from the supplement of paper PMC6411743.

Protein sequences, listed by entry. Tags and fused reporters are not part of them. Lines headed by an entry give the natural chain unless they say otherwise; changes in a name come on top.
UniProt Q9Y5B8, whole entry: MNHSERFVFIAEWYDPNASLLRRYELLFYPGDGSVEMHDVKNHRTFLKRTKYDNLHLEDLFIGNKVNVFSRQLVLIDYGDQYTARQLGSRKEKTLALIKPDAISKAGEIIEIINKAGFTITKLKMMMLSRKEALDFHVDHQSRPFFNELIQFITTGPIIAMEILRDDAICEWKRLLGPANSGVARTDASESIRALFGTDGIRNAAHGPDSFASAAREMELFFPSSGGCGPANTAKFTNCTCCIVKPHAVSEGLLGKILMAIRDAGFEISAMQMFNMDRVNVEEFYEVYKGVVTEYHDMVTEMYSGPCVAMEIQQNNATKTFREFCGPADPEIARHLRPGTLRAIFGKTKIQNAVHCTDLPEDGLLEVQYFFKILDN
UniProt Q9Y3F4: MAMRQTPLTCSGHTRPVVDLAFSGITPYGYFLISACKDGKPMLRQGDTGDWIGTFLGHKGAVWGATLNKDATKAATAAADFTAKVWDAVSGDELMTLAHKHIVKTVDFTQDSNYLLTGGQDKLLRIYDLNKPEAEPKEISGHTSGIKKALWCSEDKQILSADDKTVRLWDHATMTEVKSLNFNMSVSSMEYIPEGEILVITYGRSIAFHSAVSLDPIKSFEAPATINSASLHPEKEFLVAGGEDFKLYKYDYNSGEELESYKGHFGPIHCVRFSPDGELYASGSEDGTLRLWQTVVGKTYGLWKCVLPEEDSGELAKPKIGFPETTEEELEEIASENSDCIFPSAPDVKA
UniProt Q9Y320, whole entry: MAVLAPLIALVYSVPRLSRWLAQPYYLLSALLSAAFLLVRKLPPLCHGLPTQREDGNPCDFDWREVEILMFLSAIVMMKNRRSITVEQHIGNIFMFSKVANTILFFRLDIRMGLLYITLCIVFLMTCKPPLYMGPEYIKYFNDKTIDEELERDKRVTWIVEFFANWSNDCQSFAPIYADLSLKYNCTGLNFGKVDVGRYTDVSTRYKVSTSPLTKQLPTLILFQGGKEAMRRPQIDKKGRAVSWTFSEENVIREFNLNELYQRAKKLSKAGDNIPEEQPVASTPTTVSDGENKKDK
UniProt Q9Y547: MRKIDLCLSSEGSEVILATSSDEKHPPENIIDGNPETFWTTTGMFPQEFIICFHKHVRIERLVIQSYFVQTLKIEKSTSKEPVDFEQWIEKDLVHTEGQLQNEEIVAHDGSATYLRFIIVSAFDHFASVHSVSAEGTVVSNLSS
UniProt Q9Y3C1: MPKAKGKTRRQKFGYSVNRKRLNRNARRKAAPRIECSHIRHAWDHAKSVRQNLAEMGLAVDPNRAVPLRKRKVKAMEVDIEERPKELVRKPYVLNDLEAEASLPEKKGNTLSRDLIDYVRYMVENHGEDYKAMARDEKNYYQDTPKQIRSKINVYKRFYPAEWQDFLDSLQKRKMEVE

Compound in the assay: Nc1nc2c(ncn2[C@@H]2O[C@H](COP(=O)(O)OP(=O)(O)OP(=O)(O)O)[C@@H](O)[C@H]2O)c(=O)[nH]1 [guanosine triphosphate]
Briefly: NP40-soluble protein abundance relative to vehicle (solubility fold change) (ratio); higher = more soluble protein in presence of GTP. On the procedure: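 Solubility proteome profiling in Jurkat crude lysate. Lysate was treated with Mg-GTP (0.1-10 mM) for 10 min at room temperature and 3 min at 37 °C, then solubilised with 0.8% NP40 and benzonase, followed by ultracentrifugation. Proteins were quantified by TMT10 LC-MS/MS; the value is the NP40-soluble abundance relative to the NP40-processed vehicle, from 3 independent experiments.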

± gives the standard deviation of the averaged measurements. The list shows a part of the results.

Regarding UniProt Q9Y5B8 and related entries, the NP40-soluble protein abundance (concentration: 0.1mM) was 1.07 ± 0.047; the NP40-soluble protein abundance (concentration: 0.5mM) is 1.05 ± 0.066; the NP40-soluble protein abundance (concentration: 1mM) was 0.915 ± 0.037; the NP40-soluble protein abundance (concentration: 2mM) stood at 0.971 ± 0.099; the NP40-soluble protein abundance (concentration: 4mM) was determined as 0.946 ± 0.067; the NP40-soluble protein abundance (concentration: 6mM) is 0.931 ± 0.082. For the same target, the NP40-soluble protein abundance runs as follows: (concentration: 8mM) 0.871 ± 0.045; (concentration: 10mM) 0.868 ± 0.096.
With UniProt Q9Y3F4 and related entries, the NP40-soluble protein abundance is 0.919 ± 0.029 (concentration: 0.1mM); 0.987 ± 0.022 (concentration: 0.5mM); 0.9042 ± 0.0031 (concentration: 1mM); 0.887 ± 0.016 (concentration: 2mM); 0.866 ± 0.018 (concentration: 4mM); 0.927 ± 0.0095 (concentration: 6mM). Also, the NP40-soluble protein abundance (concentration: 8mM) worked out at 0.892 ± 0.03 and the NP40-soluble protein abundance (concentration: 10mM) turned out to be 0.882 ± 0.023.
On to UniProt Q9Y320 and related entries, for which the NP40-soluble protein abundance is 0.982 ± 0.018 (concentration: 0.1mM); 0.962 ± 0.017 (concentration: 0.5mM); 0.896 ± 0.015 (concentration: 1mM); 0.883 ± 0.053 (concentration: 2mM); 0.856 ± 0.067 (concentration: 4mM); 0.849 ± 0.043 (concentration: 6mM). Further, the NP40-soluble protein abundance (concentration: 8mM) was determined as 0.835 ± 0.064 and the NP40-soluble protein abundance (concentration: 10mM) was 0.799 ± 0.093.
Regarding HSPB11 (UniProt Q9Y547), the NP40-soluble protein abundance is 1.02 ± 0.027 (concentration: 0.1mM); 1.03 ± 0.016 (concentration: 0.5mM); 0.952 ± 0.06 (concentration: 1mM); 0.992 ± 0.084 (concentration: 2mM); 0.992 ± 0.047 (concentration: 4mM); 0.974 ± 0.052 (concentration: 6mM). Further, the NP40-soluble protein abundance runs as follows: (concentration: 8mM) 0.941 ± 0.031; (concentration: 10mM) 0.981 ± 0.11.
For the target NOP16 (UniProt Q9Y3C1), the NP40-soluble protein abundance came to 0.9656 ± 0.0024 (concentration: 0.1mM); 0.993 ± 0.14 (concentration: 0.5mM); 1.01 ± 0.25 (concentration: 1mM); 0.953 ± 0.19 (concentration: 2mM); 0.987 ± 0.19 (concentration: 4mM); 1.03 ± 0.25 (concentration: 6mM). Also, the NP40-soluble protein abundance was 0.972 ± 0.23 (concentration: 8mM) and 1.03 ± 0.075 (concentration: 10mM).
